Record: PubChem BioAssay AID743454 (Peter MacCallum Cancer Centre, 2014)
Screen: 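Genes whose loss kills vorinostat-resistant colon cancer cells under vorinostat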 (primary screen). Cell system: human HCT116-VR colon cancer cells, selected for vorinostat resistance. Reagent: siRNA pool against human genes, 40 nM siRNA pool. Time to read-out: vorinostat for 24 h, read-out about 72 h after transfection. Challenge: vorinostat at 2.5 µM final. Detection: 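Cell viability by CellTiter-Fluor and caspase 3/7 activity by luminescence, each scaled to mock wells per plate, duplicates averaged, then robust z-scored over all plates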. Direction: viability robust z-score: higher = more viable cells than screen typical; caspase robust z-score: higher = more caspase 3/7 activity than screen typical. Hit rule: 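a knock-down is a hit when classed RV1 or RV2 for lowered viability, or CA1 or CA2 for caspase activation; those lethal without drug were dropped; hits were retested singly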.
The whole screen tested about 18,000 reagents; below is an unselected part. 450 of all reagents (2.5%) were called active. 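Single biological run; no consistent viability z cut-off exists, so the class columns, not z-scores, define the calls.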

Silencing of ERCC2 [SID134315391] gave: viability hit class no change; caspase hit class no change; viability robust z-score -0.34; caspase robust z-score 1.39; inactive.
Depletion of RPL13 [SID134317924] came out at: viability hit class no change; caspase hit class no change; viability robust z-score -2.96; caspase robust z-score -0.98; inactive.
For HLA-DRB4 [SID152156229], the entry reads viability hit class no change; caspase hit class no change; viability robust z-score 1.3; caspase robust z-score 0.28; inactive.
Against NIF3L1 [SID152152370], the entry reads viability hit class no change; caspase hit class no change; viability robust z-score 1.72; caspase robust z-score -0.28; inactive.
Depletion of DRICH1 [SID135624123] gave: viability hit class no change; caspase hit class no change; viability robust z-score 1.55; caspase robust z-score -0.76; inactive.
After knock-down of FNTA [SID135621651], the record shows viability hit class no change; caspase hit class no change; viability robust z-score 1.58; caspase robust z-score -0.02; inactive.
Depletion of TMEM184A [SID135623231] came out at: viability hit class no change; caspase hit class no change; viability robust z-score -0.38; caspase robust z-score 0.72; inactive.
With knock-down of CT47A3 [SID135625661] the results were viability hit class no change; caspase hit class no change; viability robust z-score -0.52; caspase robust z-score 2.88; inactive.
Silencing of ARL6 [SID134321240] gave: viability hit class no change; caspase hit class no change; viability robust z-score -0.08; caspase robust z-score -0.74; inactive.
Depletion of MDH1B [SID152148843] came out at: viability hit class no change; caspase hit class no change; viability robust z-score -0.18; caspase robust z-score -1.25; inactive.
Knock-down of STAB1 [SID135622672] came out at: viability hit class no change; caspase hit class no change; viability robust z-score -1.29; caspase robust z-score 2.4; inactive.
Knock-down of LAMB4 [SID152152713] gave: viability hit class no change; caspase hit class no change; viability robust z-score 0.38; caspase robust z-score -1.01; inactive.
For ARFGAP3 [SID152154009] the deposit lists viability hit class no change; caspase hit class no change; viability robust z-score 0.41; caspase robust z-score 0.56; inactive.
After knock-down of POLR3D [SID152156580], the screen gave viability hit class no change; caspase hit class no change; viability robust z-score -1.88; caspase robust z-score 0.84; inactive.

Sorted by “viability robust z-score” (ascending): some entries from above
DRICH1 [SID135624123] → viability hit class = no change; caspase hit class = no change; viability robust z-score = 1.55; caspase robust z-score = -0.76; outcome = inactive
FNTA [SID135621651] → viability hit class = no change; caspase hit class = no change; viability robust z-score = 1.58; caspase robust z-score = -0.02; outcome = inactive

Next records follow.
With knock-down of MBNL2 [SID134329667], the record shows viability hit class no change; caspase hit class no change; viability robust z-score 0; caspase robust z-score 1.21; inactive.
Against TRIM46 [SID134312194], the entry reads viability hit class no change; caspase hit class no change; viability robust z-score -2.06; caspase robust z-score 3.62; inactive.
After knock-down of STRN4 [SID152156652], the record shows viability hit class no change; caspase hit class no change; viability robust z-score -0.03; caspase robust z-score 2.13; inactive.
ZBTB16 [SID152146990] showed viability hit class no change; caspase hit class no change; viability robust z-score -1.95; caspase robust z-score 2.21; inactive.
OSGIN2 [SID134313048] showed viability hit class no change; caspase hit class no change; viability robust z-score 0.39; caspase robust z-score 0.26; inactive.
AP4S1 [SID134320180] scored viability hit class no change; caspase hit class no change; viability robust z-score -1.12; caspase robust z-score 1.82; inactive.
Against MT1X [SID135623508], the entry reads viability hit class no change; caspase hit class no change; viability robust z-score 1.29; caspase robust z-score -0.27; inactive.
Knock-down of CLXN [SID135623151] came out at: viability hit class no change; caspase hit class no change; viability robust z-score -0.88; caspase robust z-score -0.43; inactive.
NECAP2 [SID152148099] gave viability hit class no change; caspase hit class no change; viability robust z-score 0.42; caspase robust z-score -0.12; inactive.
For SLC35F3 [SID152150697] the deposit lists viability hit class no change; caspase hit class no change; viability robust z-score 0.88; caspase robust z-score -0.46; inactive.
Against CYP26B1 [SID134313987], the values are viability hit class no change; caspase hit class no change; viability robust z-score 0.21; caspase robust z-score 1.08; inactive.
With knock-down of SUGCT [SID134318583], the screen gave viability hit class no change; caspase hit class no change; viability robust z-score -1.64; caspase robust z-score -0.94; inactive.
For SLC35D4 [SID152153766], the values are viability hit class no change; caspase hit class no change; viability robust z-score 1.66; caspase robust z-score 0.98; inactive.
